For 1 substance, binding results are on record in article PMC11339363.

The chains behind the UniProt entries cited, without tags or fusion partners. Residues count along the entry.
UniProt P05362, residues 28-532: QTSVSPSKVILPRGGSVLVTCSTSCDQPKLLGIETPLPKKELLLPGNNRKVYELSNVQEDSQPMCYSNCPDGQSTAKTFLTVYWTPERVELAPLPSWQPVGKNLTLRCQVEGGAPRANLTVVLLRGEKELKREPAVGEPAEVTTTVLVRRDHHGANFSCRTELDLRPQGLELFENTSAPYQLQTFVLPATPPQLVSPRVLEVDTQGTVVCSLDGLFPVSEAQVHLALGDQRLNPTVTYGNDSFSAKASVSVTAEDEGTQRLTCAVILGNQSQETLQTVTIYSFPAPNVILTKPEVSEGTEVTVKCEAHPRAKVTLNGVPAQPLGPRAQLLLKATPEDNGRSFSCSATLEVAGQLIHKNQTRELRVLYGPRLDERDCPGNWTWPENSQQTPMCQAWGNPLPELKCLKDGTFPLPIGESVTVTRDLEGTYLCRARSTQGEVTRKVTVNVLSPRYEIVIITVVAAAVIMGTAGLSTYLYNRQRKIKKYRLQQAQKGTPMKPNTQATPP
UniProt P02679, residues 27-453: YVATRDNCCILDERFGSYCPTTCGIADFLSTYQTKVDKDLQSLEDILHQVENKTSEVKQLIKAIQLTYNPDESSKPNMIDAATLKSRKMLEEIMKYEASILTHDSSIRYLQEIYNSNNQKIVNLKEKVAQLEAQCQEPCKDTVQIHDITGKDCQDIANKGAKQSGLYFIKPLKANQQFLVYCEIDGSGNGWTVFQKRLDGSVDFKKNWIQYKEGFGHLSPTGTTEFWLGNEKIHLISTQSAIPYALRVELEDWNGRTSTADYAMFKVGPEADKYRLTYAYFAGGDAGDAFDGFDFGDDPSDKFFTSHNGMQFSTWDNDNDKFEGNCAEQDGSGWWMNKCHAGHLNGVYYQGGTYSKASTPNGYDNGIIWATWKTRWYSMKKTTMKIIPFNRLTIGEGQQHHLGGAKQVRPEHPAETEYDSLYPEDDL

The assay concerns the target Intercellular cell adhesion molecule-1 (ICAM-1), endogenous in NSCLC and bronchial epithelial cell lines (human (endogenous in A549, H1650, 16HBE)) (UniProt P05362). Kind of assay: co-IP; cells treated with 5 mM DTBP for 30 min, lysed in TBS with 1% Triton X-100, 0.05% Tween 20 and protease and phosphatase inhibitors for 30 min on ice; lysates immunoprecipitated with the indicated antibodies (ICAM-1), rabbit IgG as control; immunoblot.

Results are given in words; binding and its absence hold for the method and conditions named. In cells and extracts the contact can be indirect. Some entries that bind do so weakly or less than the wild type.

With “fibrinogen γ chain (FGG), cancer cell-derived (from UniProt P02679 27-453) (ligand)”, the binding result was “binds”.
